The other results are listed elsewhere or left out.
Key:
Assay in all cases: log2 fold change, soluble protein after heating vs DMSO (PISA); higher = thermal stabilisation; K562 lysate, 10 uM; active = over 0.2 and 3.5 SD of the protein, either way, in both replicates (recomputed)
ibrutinib = compound: C=CC(=O)N1CCC[C@@H](n2nc(-c3ccc(Oc4ccccc4)cc3)c3c(N)ncnc32)C1 [ibrutinib]
Outline: (§1)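 Quantification was by TMTpro 16plex LC-MS/MS with equalised channel sums, applied to the supernatant after 21,000xg for 90 min. Samples were crude K562 extract at 1 mg/mL protein in PBS pH 7.4 with 1 mM MgCl2, treated with 10 μM compound for 30 min, heated for 3 min across 48°C-58°C, pooled and brought to 0.5% NP-40 at 4°C. Values are log-two fold changes in thermal stability relative to solvent controls, from duplicates.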

The chains behind the UniProt entries cited, without tags or fusion partners. Where a name states a change or a piece, a line headed by the entry shows the natural chain unless it says otherwise.
UniProt P00491: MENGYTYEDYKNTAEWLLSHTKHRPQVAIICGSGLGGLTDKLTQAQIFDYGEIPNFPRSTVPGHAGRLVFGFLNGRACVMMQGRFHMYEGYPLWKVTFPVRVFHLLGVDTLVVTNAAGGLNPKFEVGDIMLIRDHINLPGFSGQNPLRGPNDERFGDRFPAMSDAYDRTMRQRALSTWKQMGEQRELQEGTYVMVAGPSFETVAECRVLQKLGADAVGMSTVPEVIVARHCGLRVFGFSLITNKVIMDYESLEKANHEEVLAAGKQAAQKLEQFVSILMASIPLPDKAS
UniProt P23284: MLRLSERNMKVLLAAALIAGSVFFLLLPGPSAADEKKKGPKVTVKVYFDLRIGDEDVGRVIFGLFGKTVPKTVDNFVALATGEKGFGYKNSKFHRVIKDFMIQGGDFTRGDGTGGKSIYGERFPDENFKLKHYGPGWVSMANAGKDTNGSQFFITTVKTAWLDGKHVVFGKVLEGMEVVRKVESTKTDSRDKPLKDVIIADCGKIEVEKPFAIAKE
UniProt Q9Y2S7: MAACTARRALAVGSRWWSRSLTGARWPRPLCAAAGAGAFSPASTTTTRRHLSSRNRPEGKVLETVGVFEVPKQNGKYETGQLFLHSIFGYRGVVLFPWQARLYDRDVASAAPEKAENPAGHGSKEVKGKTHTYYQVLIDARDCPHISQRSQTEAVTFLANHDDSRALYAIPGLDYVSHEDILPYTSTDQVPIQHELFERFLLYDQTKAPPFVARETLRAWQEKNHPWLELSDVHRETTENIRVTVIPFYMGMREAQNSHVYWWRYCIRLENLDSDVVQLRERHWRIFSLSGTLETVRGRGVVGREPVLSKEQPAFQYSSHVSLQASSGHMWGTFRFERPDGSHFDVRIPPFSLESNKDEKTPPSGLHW
UniProt P49005: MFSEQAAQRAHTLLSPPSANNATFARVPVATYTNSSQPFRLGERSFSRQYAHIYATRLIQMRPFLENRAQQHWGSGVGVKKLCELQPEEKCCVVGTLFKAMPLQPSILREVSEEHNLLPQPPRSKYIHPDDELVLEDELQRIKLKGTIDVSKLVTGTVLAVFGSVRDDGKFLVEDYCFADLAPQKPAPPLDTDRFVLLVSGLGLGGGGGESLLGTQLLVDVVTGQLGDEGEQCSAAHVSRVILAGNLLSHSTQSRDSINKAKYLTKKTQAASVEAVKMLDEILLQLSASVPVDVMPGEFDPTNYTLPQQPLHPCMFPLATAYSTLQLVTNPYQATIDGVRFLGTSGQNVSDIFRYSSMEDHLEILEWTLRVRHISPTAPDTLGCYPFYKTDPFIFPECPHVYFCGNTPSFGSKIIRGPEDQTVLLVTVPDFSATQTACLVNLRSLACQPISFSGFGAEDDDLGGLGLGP
UniProt P0CG38, whole entry, looked up: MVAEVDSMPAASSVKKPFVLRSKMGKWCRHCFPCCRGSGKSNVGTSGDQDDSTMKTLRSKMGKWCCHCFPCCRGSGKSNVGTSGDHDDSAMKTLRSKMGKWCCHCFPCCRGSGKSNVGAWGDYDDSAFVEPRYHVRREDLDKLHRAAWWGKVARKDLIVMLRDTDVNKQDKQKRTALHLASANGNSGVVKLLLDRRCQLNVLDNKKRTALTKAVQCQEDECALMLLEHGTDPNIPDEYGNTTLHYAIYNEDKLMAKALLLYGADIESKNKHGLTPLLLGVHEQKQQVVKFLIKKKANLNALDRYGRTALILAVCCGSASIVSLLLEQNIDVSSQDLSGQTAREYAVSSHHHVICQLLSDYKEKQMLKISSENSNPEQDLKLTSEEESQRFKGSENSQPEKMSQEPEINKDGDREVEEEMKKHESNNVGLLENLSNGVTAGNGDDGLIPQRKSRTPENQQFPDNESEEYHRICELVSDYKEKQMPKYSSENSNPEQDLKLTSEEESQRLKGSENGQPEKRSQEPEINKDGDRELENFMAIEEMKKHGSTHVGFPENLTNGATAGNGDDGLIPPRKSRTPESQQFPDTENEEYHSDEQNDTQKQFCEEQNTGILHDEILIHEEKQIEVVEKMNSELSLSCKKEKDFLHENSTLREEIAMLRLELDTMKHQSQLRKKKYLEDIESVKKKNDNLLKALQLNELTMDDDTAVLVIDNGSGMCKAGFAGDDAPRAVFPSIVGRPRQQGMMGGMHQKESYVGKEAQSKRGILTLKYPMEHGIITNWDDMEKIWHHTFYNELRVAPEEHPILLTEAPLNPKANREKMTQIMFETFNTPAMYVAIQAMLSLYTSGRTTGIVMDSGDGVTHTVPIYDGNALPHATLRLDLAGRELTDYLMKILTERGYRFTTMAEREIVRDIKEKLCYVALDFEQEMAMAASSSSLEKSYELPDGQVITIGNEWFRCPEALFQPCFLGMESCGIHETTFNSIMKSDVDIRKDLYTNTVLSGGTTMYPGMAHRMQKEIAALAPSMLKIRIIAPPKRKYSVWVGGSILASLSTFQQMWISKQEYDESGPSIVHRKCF
UniProt Q9NP80: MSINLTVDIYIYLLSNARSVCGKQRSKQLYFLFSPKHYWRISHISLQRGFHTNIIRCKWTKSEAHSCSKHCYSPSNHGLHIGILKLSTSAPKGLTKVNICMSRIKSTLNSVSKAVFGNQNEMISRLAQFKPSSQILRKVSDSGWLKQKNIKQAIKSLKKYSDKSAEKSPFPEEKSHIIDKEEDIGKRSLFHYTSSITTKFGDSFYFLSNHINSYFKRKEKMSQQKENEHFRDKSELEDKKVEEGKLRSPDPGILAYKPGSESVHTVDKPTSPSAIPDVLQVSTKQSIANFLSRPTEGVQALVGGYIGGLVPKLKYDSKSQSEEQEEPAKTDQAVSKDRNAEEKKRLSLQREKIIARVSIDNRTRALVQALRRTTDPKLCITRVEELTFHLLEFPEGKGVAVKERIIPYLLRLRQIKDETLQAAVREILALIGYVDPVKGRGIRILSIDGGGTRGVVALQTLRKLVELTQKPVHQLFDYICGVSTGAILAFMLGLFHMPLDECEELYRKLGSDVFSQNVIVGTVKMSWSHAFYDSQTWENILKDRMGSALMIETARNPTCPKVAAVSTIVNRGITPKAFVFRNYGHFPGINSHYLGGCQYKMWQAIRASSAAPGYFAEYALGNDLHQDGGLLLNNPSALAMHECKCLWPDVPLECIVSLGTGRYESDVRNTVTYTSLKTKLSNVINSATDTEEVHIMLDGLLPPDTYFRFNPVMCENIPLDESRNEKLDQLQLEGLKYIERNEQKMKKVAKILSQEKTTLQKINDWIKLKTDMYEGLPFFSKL
UniProt Q9BT43: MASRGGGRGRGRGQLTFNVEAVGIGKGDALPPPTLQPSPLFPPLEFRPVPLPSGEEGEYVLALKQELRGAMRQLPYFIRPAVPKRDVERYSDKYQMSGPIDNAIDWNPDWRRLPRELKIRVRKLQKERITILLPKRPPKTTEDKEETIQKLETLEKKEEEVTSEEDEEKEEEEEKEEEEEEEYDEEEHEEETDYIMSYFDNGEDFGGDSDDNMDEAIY
UniProt Q07864, whole entry, looked up: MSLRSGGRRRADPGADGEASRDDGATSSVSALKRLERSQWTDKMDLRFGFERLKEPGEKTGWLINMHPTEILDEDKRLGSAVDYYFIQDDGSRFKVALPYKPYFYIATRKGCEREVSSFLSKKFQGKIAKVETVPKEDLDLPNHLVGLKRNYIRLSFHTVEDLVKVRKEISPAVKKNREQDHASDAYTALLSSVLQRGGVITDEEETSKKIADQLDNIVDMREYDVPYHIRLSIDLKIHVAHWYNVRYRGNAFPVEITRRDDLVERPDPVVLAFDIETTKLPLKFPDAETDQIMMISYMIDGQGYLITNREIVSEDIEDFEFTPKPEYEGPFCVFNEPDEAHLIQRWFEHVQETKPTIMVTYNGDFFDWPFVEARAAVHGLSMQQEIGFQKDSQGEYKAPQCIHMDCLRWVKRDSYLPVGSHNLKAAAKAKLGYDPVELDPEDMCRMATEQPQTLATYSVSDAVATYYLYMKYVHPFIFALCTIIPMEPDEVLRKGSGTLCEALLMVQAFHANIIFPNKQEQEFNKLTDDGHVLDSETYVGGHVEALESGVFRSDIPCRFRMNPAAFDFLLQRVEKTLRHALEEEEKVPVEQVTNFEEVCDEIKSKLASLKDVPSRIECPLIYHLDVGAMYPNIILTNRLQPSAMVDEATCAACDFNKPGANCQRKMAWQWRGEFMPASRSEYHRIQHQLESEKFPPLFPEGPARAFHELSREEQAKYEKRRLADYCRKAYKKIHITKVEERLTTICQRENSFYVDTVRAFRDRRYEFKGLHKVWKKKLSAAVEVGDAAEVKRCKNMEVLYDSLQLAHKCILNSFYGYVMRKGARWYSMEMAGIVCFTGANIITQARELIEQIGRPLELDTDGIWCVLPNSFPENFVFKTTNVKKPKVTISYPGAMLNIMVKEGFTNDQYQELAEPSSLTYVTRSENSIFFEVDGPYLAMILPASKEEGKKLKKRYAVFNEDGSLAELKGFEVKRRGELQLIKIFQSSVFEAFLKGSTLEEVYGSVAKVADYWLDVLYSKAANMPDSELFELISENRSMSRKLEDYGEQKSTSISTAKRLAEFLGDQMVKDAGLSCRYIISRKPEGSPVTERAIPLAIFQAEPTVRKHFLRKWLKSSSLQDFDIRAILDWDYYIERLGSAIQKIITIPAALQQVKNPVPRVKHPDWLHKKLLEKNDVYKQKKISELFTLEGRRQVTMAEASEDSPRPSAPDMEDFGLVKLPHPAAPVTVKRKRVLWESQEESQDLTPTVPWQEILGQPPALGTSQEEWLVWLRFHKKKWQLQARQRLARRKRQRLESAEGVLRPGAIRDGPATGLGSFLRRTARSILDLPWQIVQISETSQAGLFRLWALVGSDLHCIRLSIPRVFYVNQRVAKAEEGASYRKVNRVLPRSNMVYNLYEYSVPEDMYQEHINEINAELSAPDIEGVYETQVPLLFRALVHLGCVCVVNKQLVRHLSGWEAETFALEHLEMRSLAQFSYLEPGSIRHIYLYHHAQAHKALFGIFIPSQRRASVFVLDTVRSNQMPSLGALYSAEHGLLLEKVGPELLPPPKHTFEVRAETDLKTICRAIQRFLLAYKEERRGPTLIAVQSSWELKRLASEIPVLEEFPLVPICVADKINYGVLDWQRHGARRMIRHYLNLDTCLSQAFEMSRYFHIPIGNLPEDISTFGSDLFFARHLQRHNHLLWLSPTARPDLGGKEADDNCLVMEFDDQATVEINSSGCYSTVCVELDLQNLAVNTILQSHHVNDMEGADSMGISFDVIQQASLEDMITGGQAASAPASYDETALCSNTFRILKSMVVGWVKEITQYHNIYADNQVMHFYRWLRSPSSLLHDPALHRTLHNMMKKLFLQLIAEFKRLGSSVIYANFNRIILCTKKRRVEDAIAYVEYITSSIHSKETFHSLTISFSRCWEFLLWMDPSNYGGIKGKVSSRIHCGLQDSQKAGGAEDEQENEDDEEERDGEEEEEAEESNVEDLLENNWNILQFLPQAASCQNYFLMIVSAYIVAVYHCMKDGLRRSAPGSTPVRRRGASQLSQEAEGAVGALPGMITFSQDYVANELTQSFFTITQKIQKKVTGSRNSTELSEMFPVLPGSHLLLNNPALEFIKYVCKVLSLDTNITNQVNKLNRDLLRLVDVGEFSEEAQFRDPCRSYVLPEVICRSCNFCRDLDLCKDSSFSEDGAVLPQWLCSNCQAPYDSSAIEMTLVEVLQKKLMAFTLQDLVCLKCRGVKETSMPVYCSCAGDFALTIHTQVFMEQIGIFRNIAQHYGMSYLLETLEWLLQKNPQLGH
UniProt P14859: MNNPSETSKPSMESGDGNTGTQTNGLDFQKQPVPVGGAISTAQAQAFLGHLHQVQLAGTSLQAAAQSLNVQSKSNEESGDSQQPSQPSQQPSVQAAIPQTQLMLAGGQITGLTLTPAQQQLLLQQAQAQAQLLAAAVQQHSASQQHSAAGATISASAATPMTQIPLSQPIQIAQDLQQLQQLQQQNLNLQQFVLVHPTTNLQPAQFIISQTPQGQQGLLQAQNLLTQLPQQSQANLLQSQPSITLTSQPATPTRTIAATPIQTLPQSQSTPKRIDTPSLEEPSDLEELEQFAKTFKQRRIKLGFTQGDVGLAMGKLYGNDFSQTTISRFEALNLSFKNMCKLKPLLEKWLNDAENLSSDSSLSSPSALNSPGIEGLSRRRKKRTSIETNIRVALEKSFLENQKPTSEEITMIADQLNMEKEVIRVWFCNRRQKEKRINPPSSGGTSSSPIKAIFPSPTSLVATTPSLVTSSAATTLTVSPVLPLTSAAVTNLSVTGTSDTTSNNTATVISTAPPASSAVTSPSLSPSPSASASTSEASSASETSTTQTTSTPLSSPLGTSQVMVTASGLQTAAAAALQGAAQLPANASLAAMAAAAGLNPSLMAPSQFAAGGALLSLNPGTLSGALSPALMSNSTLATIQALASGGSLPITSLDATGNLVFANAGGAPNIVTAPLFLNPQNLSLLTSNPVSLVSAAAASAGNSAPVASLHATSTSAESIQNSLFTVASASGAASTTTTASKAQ

[1] = compound: CC(=O)c1cnc2ccc(-c3cc(Cl)c(O)c(Cl)c3)nc2c1N[C@H]1CC[C@H](CN(C)C)CC1
Outline: as §1

ralimetinib = compound: CC(C)(C)Cn1c(N)nc2ccc(-c3[nH]c(C(C)(C)C)nc3-c3ccc(F)cc3)nc21 [ralimetinib]
Outline: as §1

[2] = compound: CC(C)(O)CC(=O)NCCn1ccc2ncnc(Nc3ccc(Oc4cccc(C(F)(F)F)c4)c(Cl)c3)c21
Outline: as §1

[3] = compound: CC(C)C1=C2N=C(C=C(N2N=C1)NCC3=CC=CC=C3)NCCCCCCN
Outline: as §1

[4] = compound: CC1=C(C(CC(=O)N1)C2=CC=C(C=C2)C(F)(F)F)C(=O)NC3=C(C=C4C(=C3)C=NN4)F
Outline: as §1

[5] = compound: CC1=C(C2=C(C=C1)C(=O)C3=CC=CC=C3N2CCCN)C
Outline: as §1

[6] = compound: CC1=C(C=C(C=C1)NC(=O)C2=CC(=CC=C2)C(C)(C)C#N)NC3=CC4=C(C=C3)N=CN(C4=O)C
Outline: as §1

[7] = compound: CC1=C(C=C(C=C1)NC(=O)C2=CC(=CC=C2)N(C)C)NC(=O)C3=CC=C(C=C3)O
Outline: as §1

[8] = compound: CC1=CC=C(C=C1)SC2=C3C=C(SC3=CN=C2)C(=O)N
Outline: as §1

vemurafenib = compound: CCCS(=O)(=O)Nc1ccc(F)c(C(=O)c2c[nH]c3ncc(-c4ccc(Cl)cc4)cc23)c1F [vemurafenib]
Outline: as §1

[9] = compound: CCCS(=O)(=O)Nc1ccc(F)c(C(=O)c2c[nH]c3ncc(Cl)cc23)c1F
Outline: as §1

barasertib = compound: CCN(CCCOc1ccc2c(Nc3cc(CC(=O)Nc4cccc(F)c4)[nH]n3)ncnc2c1)CCOP(=O)(O)O [barasertib]
Outline: as §1

[10] = compound: CC[C@@H]1C(=O)N(C)c2cnc(Nc3ccc(C(=O)NC4CCN(C)CC4)cc3OC)nc2N1C1CCCC1
Outline: as §1

volasertib = compound: CC[C@@H]1C(=O)N(C)c2cnc(Nc3ccc(C(=O)N[C@H]4CC[C@H](N5CCN(CC6CC6)CC5)CC4)cc3OC)nc2N1C(C)C [volasertib]
Outline: as §1

[11] = compound: CCn1c(C(=O)N(C2CC2)C2CC2)cc2c3c(ncn3C)c(Nc3cc(C)n(C)n3)nc21
Outline: as §1

[12] = compound: CCn1cc(-c2ccnc3[nH]c(-c4cccc(CN(C)C)c4)cc23)c(-c2ccc(NC(=O)N(C)C)cc2)n1
Outline: as §1

[13] = compound: CN1CCC(CNc2ccc3ncc(-c4cccc(OC(F)(F)F)c4)n3n2)CC1
Outline: as §1

saracatinib = compound: CN1CCN(CCOc2cc(OC3CCOCC3)c3c(Nc4c(Cl)ccc5c4OCO5)ncnc3c2)CC1 [saracatinib]
Outline: as §1

sotrastaurin = compound: CN1CCN(c2nc(C3=C(c4c[nH]c5ccccc45)C(=O)NC3=O)c3ccccc3n2)CC1 [sotrastaurin]
Outline: as §1

Measured: log2 fold change

PNP (UniProt P00491)
inactive: ibrutinib -0.007 | [1] 0.01 | ralimetinib -0.002 | [2] -0.027 | [3] 0.001 | [4] -0.023 | [5] 0.016 | [6] 0.009 | [7] -0.004 | [8] -0.011 | vemurafenib -0.029 | [9] -0.012 | barasertib -0.035 | [10] 0.007 | volasertib 0.014 | [11] 0.013 | [12] -0.001 | [13] 0.049 | saracatinib -0.01 | sotrastaurin 0.022

POLA2 (UniProt Q14181)
inactive: ibrutinib 0.037 | [1] -0.001 | ralimetinib 0.011 | [2] -0.005 | [3] -0.003 | [4] -0.048 | [5] 0.008 | [6] 0.013 | [7] -0.008 | [8] -0.011 | vemurafenib -0.008 | [9] -0.026 | barasertib -0.003 | [10] 0.027 | volasertib 0.009 | [11] 0.012 | [12] 0.087 | [13] -0.036 | saracatinib 0.009 | sotrastaurin 0.009

PNKD isoform 2 (UniProt Q8N490)
inactive: ibrutinib 0.126 | [1] 0.005 | ralimetinib 0.03 | [2] -0.003 | [3] -0.045 | [4] -0.069 | [5] -0.064 | [6] -0.059 | [7] 0.066 | [8] -0.107 | vemurafenib 0.025 | [9] -0.004 | barasertib -0.008 | [10] 0.041 | volasertib -0.059 | [11] 0 | [12] 0.041 | [13] -0.042 | saracatinib -0.032 | sotrastaurin -0.038

PPIB (UniProt P23284)
inactive: ibrutinib 0.015 | [1] -0.008 | ralimetinib 0.007 | [2] -0.002 | [3] -0.004 | [4] -0.032 | [5] -0.008 | [6] -0.028 | [7] -0.011 | [8] -0.006 | vemurafenib -0.014 | [9] -0.001 | barasertib 0.002 | [10] 0.017 | volasertib 0.028 | [11] 0.003 | [12] 0.008 | [13] -0.015 | saracatinib 0.005 | sotrastaurin -0.013

POLDIP2 (UniProt Q9Y2S7)
inactive: ibrutinib 0.003 | [1] 0.011 | ralimetinib 0.019 | [2] -0.022 | [3] -0.021 | [4] -0.051 | [5] 0.022 | [6] -0.039 | [7] -0.034 | [8] 0.04 | vemurafenib -0.051 | [9] 0.006 | barasertib 0.015 | [10] -0.031 | volasertib 0.02 | [11] 0.056 | [12] -0.008 | [13] 0.073 | saracatinib -0.022 | sotrastaurin -0.011

PLS3 (UniProt P13797)
inactive: ibrutinib 0.021 | [1] 0.004 | ralimetinib 0.006 | [2] -0.04 | [3] -0.01 | [4] -0.017 | [5] -0.021 | [6] 0.013 | [7] -0.012 | [8] 0.003 | vemurafenib 0 | [9] -0.019 | barasertib -0.007 | [10] -0.006 | volasertib 0.011 | [11] -0.008 | [12] -0.158 | [13] 0.147 | saracatinib -0.005 | sotrastaurin 0.001

POLD2 (UniProt P49005)
inactive: ibrutinib 0.026 | [1] 0.015 | ralimetinib 0.018 | [2] 0.013 | [3] 0 | [4] -0.011 | [5] -0.024 | [6] -0.004 | [7] 0.037 | [8] 0.004 | vemurafenib 0.044 | [9] 0.023 | barasertib -0.006 | [10] 0.035 | volasertib -0.004 | [11] 0.01 | [12] -0.127 | [13] 0.043 | saracatinib -0.003 | sotrastaurin -0.025

PMM2 (UniProt O15305)
inactive: ibrutinib -0.007 | [1] 0.021 | ralimetinib 0.01 | [2] 0.035 | [3] -0.006 | [4] -0.013 | [5] 0 | [6] -0.017 | [7] 0.016 | [8] 0.035 | vemurafenib 0.005 | [9] 0.007 | barasertib 0 | [10] -0.016 | volasertib -0.012 | [11] 0.033 | [12] -0.105 | [13] 0.065 | saracatinib 0.021 | sotrastaurin 0.007

POLRMT (UniProt O00411)
inactive: ibrutinib -0.018 | [1] -0.011 | ralimetinib -0.021 | [2] -0.028 | [3] 0.011 | [4] 0.01 | [5] 0.027 | [6] 0.042 | [7] 0.047 | [8] -0.002 | vemurafenib 0.032 | [9] 0.018 | barasertib 0.09 | [10] -0.081 | volasertib -0.022 | [11] 0.019 | [12] 0.041 | [13] -0.062 | saracatinib 0.032 | sotrastaurin 0.052

POTEI (UniProt P0CG38)
inactive: ibrutinib 0.004 | [1] -0.017 | ralimetinib 0.015 | [2] -0.019 | [3] 0.045 | [4] -0.019 | [5] -0.003 | [6] 0.045 | [7] -0.027 | [8] 0 | vemurafenib -0.004 | [9] 0.033 | barasertib 0.003 | [10] -0.003 | volasertib -0.076 | [11] -0.023 | [12] -0.03 | [13] -0.02 | saracatinib 0.021 | sotrastaurin 0.036

PNKD (UniProt Q8N490)
inactive: ibrutinib 0.031 | [1] -0.122 | ralimetinib 0.026 | [2] -0.145 | [3] 0.066 | [4] 0 | [5] -0.076 | [6] -0.179 | [7] 0.111 | [8] -0.008 | vemurafenib 0.075 | [9] 0.05 | barasertib 0.06 | [10] -0.059 | volasertib -0.007 | [11] 0.017 | [12] 0.094 | [13] -0.006 | saracatinib 0.056 | sotrastaurin -0.028

PNPLA8 (UniProt Q9NP80)
inactive: ibrutinib 0.047 | [1] 0.004 | ralimetinib -0.052 | [2] -0.012 | [3] -0.013 | [4] 0.047 | [5] 0.041 | [6] 0.004 | [7] 0.051 | [8] 0.022 | vemurafenib -0.017 | [9] 0.039 | barasertib 0.089 | [10] -0.185 | volasertib 0.016 | [11] -0.018 | [12] 0.622 | [13] 0.018 | saracatinib 0.039 | sotrastaurin -0.094

POLR3GL (UniProt Q9BT43)
inactive: ibrutinib -0.287 | [1] 0.003 | ralimetinib -0.013 | [2] -0.121 | [3] -0.085 | [4] -0.036 | [5] -0.077 | [6] 0.053 | [7] -0.08 | [8] 0.027 | vemurafenib -0.038 | [9] -0.037 | barasertib -0.065 | [10] 0.017 | volasertib 0 | [11] -0.108 | [12] 0.116 | [13] -0.04 | saracatinib -0.062 | sotrastaurin 0.008

POLR1A (UniProt O95602)
inactive: ibrutinib 0.076 | [1] -0.006 | ralimetinib 0.012 | [2] -0.05 | [3] 0.007 | [4] 0.014 | [5] -0.081 | [6] -0.024 | [7] 0.018 | [8] 0.023 | vemurafenib 0.04 | [9] 0.006 | barasertib 0.074 | [10] 0.055 | volasertib -0.01 | [11] -0.005 | [12] 0.012 | [13] -0.056 | saracatinib -0.011 | sotrastaurin 0.052

POLE (UniProt Q07864)
inactive: ibrutinib 0.007 | [1] 0.034 | ralimetinib 0.022 | [2] -0.055 | [3] -0.001 | [4] 0.03 | [5] -0.045 | [6] -0.025 | [7] 0.02 | [8] 0.124 | vemurafenib 0.046 | [9] -0.013 | barasertib 0.013 | [10] 0.001 | volasertib -0.033 | [11] -0.004 | [12] -0.041 | [13] -0.04 | saracatinib 0.046 | sotrastaurin 0.02

POU2F1 isoform 6 (UniProt P14859)
inactive: ibrutinib -0.008 | [1] 0.01 | ralimetinib -0.011 | [2] -0.007 | [3] 0.012 | [4] 0.007 | [5] 0 | [6] -0.024 | [7] 0.011 | [8] -0.038 | vemurafenib 0.028 | [9] 0.006 | barasertib -0.019 | [10] 0.122 | volasertib -0.011 | [11] -0.009 | [12] 0.049 | [13] -0.086 | saracatinib -0.023 | sotrastaurin 0.05

Reference: the supplement of paper PMC10849652
